Earlier results as cited in patent publication US11534445B2, “Compositions and methods for immune-mediated cancer therapy” (Teclison Limited, priority 2015, dated 2022).
Some of these results come from one statement about several compounds together.

Conditions: cited from earlier work

## CNC(=O)c1cc(Oc2ccc(NC(=O)Nc3ccc(Cl)c(C(F)(F)F)c3)cc2)ccn1 [sorafenib]
  half-lives: less than 24 hours

## CCN(CC)CCNC(=O)c1c(C)[nH]c(/C=C2\C(=O)Nc3ccc(F)cc32)c1C [sunitinib]
  half-lives: less than 24 hours
